Some of the results follow.
Tests used:
Experiment in all cases: glycan array binding signal (z-score within array); higher = stronger binding
Conditions in all cases: glycan notation: IUPAC condensed, linker removed
[1] = biological target: Fuc(a1-2)Gal(b1-4)GlcNAc(b1-3)Gal(b1-4)GlcNAc(b1-2)Man(a1-3)[Fuc(a1-2)Gal(b1-4)GlcNAc(b1-3)Gal(b1-4)GlcNAc(b1-2)Man(a1-6)]Man(b1-4)GlcNAc(b1-4)GlcNAc
Procedure, shortened: (§1)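 Glycan array data were curated from 3228 arrays in the Consortium for Functional Glycomics database and kept only where the protein sequence was available. Glycan names were converted to IUPAC-condensed notation, and columns mapping to the same glycan were averaged. The binding signal is a within-array Z-score, averaged across arrays of the same protein sequence at different concentrations or buffers and across linkers. Negative Z-scores can be read as non-binding.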

[2] = biological target: Fuc(a1-2)Gal(b1-4)GlcNAc(b1-3)Gal(b1-4)GlcNAc(b1-3)Gal(b1-4)GlcNAc
Procedure, shortened: as §1

[3] = biological target: Fuc(a1-2)Gal(b1-4)GlcNAc(b1-3)GalNAc
Procedure, shortened: as §1

[4] = biological target: Fuc(a1-2)Gal(b1-4)GlcNAc(b1-3)[Fuc(a1-2)Gal(b1-4)GlcNAc(b1-6)]GalNAc
Procedure, shortened: as §1

[5] = biological target: Fuc(a1-2)Gal(b1-4)GlcNAc(b1-3)[Fuc(a1-3)[Gal(b1-4)]GlcNAc(b1-6)]Gal(b1-4)Glc
Procedure, shortened: as §1

[6] = biological target: Fuc(a1-2)Gal(b1-4)GlcNAc(b1-6)GalNAc
Procedure, shortened: as §1

[7] = biological target: Fuc(a1-2)Gal(b1-4)GlcNAc6S
Procedure, shortened: as §1

[8] = biological target: Fuc(a1-2)Gal(b1-4)[Fuc(a1-3)]GlcNAc
Procedure, shortened: as §1

[9] = biological target: Fuc(a1-2)Gal(b1-4)[Fuc(a1-3)]GlcNAc(b1-2)Man(a1-3)[Fuc(a1-2)Gal(b1-4)[Fuc(a1-3)]GlcNAc(b1-2)Man(a1-6)]Man(b1-4)GlcNAc(b1-4)[Fuc(a1-6)]GlcNAc
Procedure, shortened: as §1

[10] = biological target: Fuc(a1-2)Gal(b1-4)[Fuc(a1-3)]GlcNAc(b1-2)[Fuc(a1-2)Gal(b1-4)[Fuc(a1-3)]GlcNAc(b1-4)]Man(a1-3)[Fuc(a1-2)Gal(b1-4)[Fuc(a1-3)]GlcNAc(b1-2)Man(a1-6)]Man(b1-4)GlcNAc(b1-4)GlcNAc
Procedure, shortened: as §1

[11] = biological target: Fuc(a1-2)Gal(b1-4)[Fuc(a1-3)]GlcNAc(b1-3)Gal(b1-4)[Fuc(a1-3)]GlcNAc
Procedure, shortened: as §1

[12] = biological target: Fuc(a1-2)Gal(b1-4)[Fuc(a1-3)]GlcNAc(b1-3)Gal(b1-4)[Fuc(a1-3)]GlcNAc(b1-3)Gal(b1-4)[Fuc(a1-3)]GlcNAc
Procedure, shortened: as §1

[13] = biological target: Fuc(a1-2)Gal(b1-4)[Fuc(a1-3)]GlcNAc(b1-3)GalNAc
Procedure, shortened: as §1

[14] = biological target: Fuc(a1-2)Gal(b1-4)[Fuc(a1-3)]GlcNAc(b1-3)[Neu5Ac(a2-6)Gal(b1-4)GlcNAc(b1-6)]Gal(b1-4)Glc
Procedure, shortened: as §1

[15] = biological target: Fuc(a1-2)Gal3S(b1-4)GlcNAc
Procedure, shortened: as §1

[16] = biological target: Fuc(a1-2)Gal6S(b1-3)GlcNAc
Procedure, shortened: as §1

[17] = biological target: Fuc(a1-2)Gal6S(b1-3)GlcNAc6S
Procedure, shortened: as §1

[18] = biological target: Fuc(a1-2)Gal6S(b1-4)Glc
Procedure, shortened: as §1

[19] = biological target: Fuc(a1-2)Gal6S(b1-4)Glc6S
Procedure, shortened: as §1

[20] = biological target: Fuc(a1-2)[Gal(a1-3)]Gal
Procedure, shortened: as §1

[21] = biological target: Fuc(a1-2)[Gal(a1-3)]Gal(b1-3)GalNAc
Procedure, shortened: as §1

[22] = biological target: Fuc(a1-2)[Gal(a1-3)]Gal(b1-3)GalNAc(b1-3)Gal(a1-4)Gal(b1-4)Glc
Procedure, shortened: as §1

[23] = biological target: Fuc(a1-2)[Gal(a1-3)]Gal(b1-3)GlcNAc
Procedure, shortened: as §1

[24] = biological target: Fuc(a1-2)[Gal(a1-3)]Gal(b1-3)GlcNAc(b1-2)Man(a1-3)[Fuc(a1-2)[Gal(a1-3)]Gal(b1-3)GlcNAc(b1-2)Man(a1-6)]Man(b1-4)GlcNAc(b1-4)GlcNAc
Procedure, shortened: as §1

[25] = biological target: Fuc(a1-2)[Gal(a1-3)]Gal(b1-3)GlcNAc(b1-2)Man(a1-3)[Fuc(a1-2)[Gal(a1-3)]Gal(b1-3)GlcNAc(b1-2)Man(a1-6)]Man(b1-4)GlcNAc(b1-4)[Fuc(a1-6)]GlcNAc
Procedure, shortened: as §1

[26] = biological target: Fuc(a1-2)[Gal(a1-3)]Gal(b1-3)GlcNAc(b1-3)GalNAc
Procedure, shortened: as §1

[27] = biological target: Fuc(a1-2)[Gal(a1-3)]Gal(b1-3)GlcNAc(b1-6)GalNAc
Procedure, shortened: as §1

[28] = biological target: Fuc(a1-2)[Gal(a1-3)]Gal(b1-4)Glc
Procedure, shortened: as §1

[29] = biological target: Fuc(a1-2)[Gal(a1-3)]Gal(b1-4)GlcNAc
Procedure, shortened: as §1

[30] = biological target: Fuc(a1-2)[Gal(a1-3)]Gal(b1-4)GlcNAc(b1-2)Man
Procedure, shortened: as §1

B1: BT4246 (Bacteroides thetaiotaomicron), Q89ZX5 (protein)
chain: MGSSHHHHHHENLYFQGHMASDYLDVVPPEQPNIDDAMSSPTRALGFLYSCYGGVSTDLPSAYLGEINSTTDEYVLPYSWNTDGYWGAYAFNTASSTNQDWLWGTTYQYIGQCYLFLQKLENAGSDIASDAEKEQWRAECQFLVAYYHFATLRRYGPIPITDSYIPMDTPTSEYNGRFHFDYCVDWIANQLDEAAKVLPANRTVTNEWGRATSTIAKAVKARLLLYAASPLWNGSFPYPNWQNENFETPGYGKALVSNTYDKSKWERALAACQEALTLATTSGDRELYDDDEYYSRQSLNLPFVPGVADVEDNKEFLKNVMKMRYAVSTRESEGNKEIIWGLSNQFDFYSRYPLRILKKSDGTWHAGYSGVSPTLYTFEHFYTANGKLPEKDLDFTPSSEWFESAGISSREDIIKLNVGREPRFYAWMAFDGGDYGTKFAAGSPLKLEMRNSEMHGYNPSLFNRDHSVTGFLTQKFVDPVTEFYTAGGSTSGTSAPTILFRLAELYLNVAECHAALGNTQEAIDALNPVRERAGIPKLTLADITNNMTIKDWVHNERFVELWNEGHRFFDVRRWAEGAKYFGANKREGLNAEVQSPTFEEFNKRTTVDAPYVWENRMYLNPVFYNEVYKNPQMVQAPGY
glycan array binding signal (z-score) [1]: 0.084 | glycan array binding signal (z-score) [2]: 0.368 | glycan array binding signal (z-score) [3]: 1.95 | glycan array binding signal (z-score) [4]: -1.4 | glycan array binding signal (z-score) [5]: 1.17 | glycan array binding signal (z-score) [6]: -0.332 | glycan array binding signal (z-score) [7]: -1.28 | glycan array binding signal (z-score) [8]: -1.11 | glycan array binding signal (z-score) [9]: -0.552 | glycan array binding signal (z-score) [10]: 0.285 | glycan array binding signal (z-score) [11]: -0.218 | glycan array binding signal (z-score) [12]: -0.37 | glycan array binding signal (z-score) [13]: -0.125 | glycan array binding signal (z-score) [14]: 0.068 | glycan array binding signal (z-score) [15]: -0.268 | glycan array binding signal (z-score) [16]: 1.75 | glycan array binding signal (z-score) [17]: -0.889 | glycan array binding signal (z-score) [18]: 0.64 | glycan array binding signal (z-score) [19]: -1.65 | glycan array binding signal (z-score) [20]: -0.193 | glycan array binding signal (z-score) [21]: 0.803 | glycan array binding signal (z-score) [22]: -0.117 | glycan array binding signal (z-score) [23]: -0.528 | glycan array binding signal (z-score) [24]: 1.31 | glycan array binding signal (z-score) [25]: 0.113 | glycan array binding signal (z-score) [26]: -0.267 | glycan array binding signal (z-score) [27]: 0.604 | glycan array binding signal (z-score) [28]: -0.388 | glycan array binding signal (z-score) [29]: -0.986 | glycan array binding signal (z-score) [30]: -0.872
